Experimental data: PMC7396582
Results are given in words; binding and its absence hold for the method and conditions named. Binding seen in cells or lysates may run through a third protein. Here binding means that the protein was enriched with, or labelled near, the bait; the list need not be complete.

T1: M6a-loops (rat) (UniProt Q812E9)
T1 sequence (chain, biotin on the BAP (sec-BirA from the pBig plasmid)): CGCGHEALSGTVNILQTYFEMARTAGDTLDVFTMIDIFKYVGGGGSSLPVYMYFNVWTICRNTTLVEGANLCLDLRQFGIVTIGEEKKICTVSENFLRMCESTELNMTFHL

B1: Cntn1 (protein, UniProt Q63198 21-1001)
chain: EFTWHRRYGHGVSEEDKGFGPIFEEQPINTIYPEESLEGKVSLNCRARASPFPVYKWRMNNGDVDLTNDRYSMVGGNLVINNPDKQKDAGIYYCLASNNYGMVRSTEATLSFGYLDPFPPEDRPEVKVKEGKGMVLLCDPPYHFPDDLSYRWLLNEFPVFITMDKRRFVSQTNGNLYIANVESSDRGNYSCFVSSPSITKSVFSKFIPLIPIPERTTKPYPADIVVQFKDIYTMMGQNVTLECFALGNPVPDIRWRKVLEPMPTTAEISTSGAVLKIFNIQLEDEGLYECEAENIRGKDKHQARIYVQAFPEWVEHINDTEVDIGSDLYWPCVATGKPIPTIRWLKNGYAYHKGELRLYDVTFENAGMYQCIAENAYGTIYANAELKILALAPTFEMNPMKKKILAAKGGRVIIECKPKAAPKPKFSWSKGTEWLVNSSRILIWEDGSLEINNITRNDGGIYTCFAENNRGKANSTGTLVITNPTRIILAPINADITVGENATMQCAASFDPSLDLTFVWSFNGYVIDFNKEITNIHYQRNFMLDANGELLIRNAQLKHAGRYTCTAQTIVDNSSASADLVVRGPPGPPGGLRIEDIRATSVALTWSRGSDNHSPISKYTIQTKTILSDDWKDAKTDPPIIEGNMESAKAVDLIPWMEYEFRVVATNTLGTGEPSIPSNRIKTDGAAPNVAPSDVGGGGGTNRELTITWAPLSREYHYGNNFGYIVAFKPFDGEEWKKVTVTNPDTGRYVHKDETMTPSTAFQVKVKAFNNKGDGPYSLIAVINSAQDAPSEAPTEVGVKVLSSSEISVHWKHVLEKIVESYQIRYWAGHDKEAAAHRVQVTSQEYSARLENLLPDTQYFIEVGACNSAGCGPSSDVIETFTRKAPPSQPPRIISSVRSGSRYIITWDHVVALSNESTVTGYKILYRPDGQHDGKLFSTHKHSIEVPIPRDGEYVVEVRAHSDGGDGVVSQVKISGVSTLS
B2: Nckap1 (protein, UniProt P55161 1-1128)
chain: MSRSVLQPSQQKLAEKLTILNDRGVGMLTRLYNIKKACGDPKAKPSYLIDKNLESAVKFIVRKFPAVETRNNNQQLAQLQKEKSEILKNLALYYFTFVDVMEFKDHVCDLLNTIDVCQVFFDITVNFDLTKNYLDLTVTYTTLMILLSRIEERKAIIGLYNYAHEMTHGASDREYPRLGQMIVDYEHPLKKMMEEFVPHSKSLSDALISLQMVYPRRNLSADQWRNAQLLSLISAPSTMLNPAQSDTMPCEYLSLDAMEKWIIFGFILCHGMLNTEATALNLWKLALQSSSCLSLFRDEVFHIHKAAEDLFVNIRGYNKRINDIRECKEAAVSHAGSMHRERRKFLRSALKELATVLSDQPGLLGPKALFVFMALSFARDEIIWLLRHADNMPKKSADDFIDKHIAELIFYMEELRAHVRKYGPVMQRYYVQYLSGFDAVVLNELVQNLSVCPEDESIIMSSFVNTMTSLSVKQVEDGEVFDFRGMRLDWFRLQAYTSVSKASLSLADHRELGKMMNTIIFHTKMVDSLVEMLVETSDLSIFCFYSRAFEKMFQQCLELPSQSRYSIAFPLLCTHFMSCTHELCPEERHHIGDRSLSLCNMFLDEMAKQARNLITDICTEQCTLSDQLLPKHCAKTISQAVNKKSKKQTGKKGEPEREKPGVESMRKNRLVVTNLDKLHTALSELCFSINYVPNMAVWEHTFTPREYLTSHLEIRFTKSIVGMTMYNQATQEIAKPSELLTSVREYMTVLQSIENYVQIDITRVFNNVLLQQTQHLDSHGEPTITSLYTNWYLETLLRQVSNGHIAYFPAMKAFVNLPTENELTFNAEEYSDISEMRSLSELLGPYGMKFLSESLMWHISSQVAELKKLVVENVDVLTQMRTSFDKPDQMAALFKRLSSVDSVLKRMTIIGVILSFRSLAQEALRDVLSYHIPFLVSSIEDFKDHIPRETDMKVAMNVYELSSAAGLPCEIDPALVVALSSQKSENISPEEEYKIACLLMVFVAVSLPTLASNVMSQYSPAIEGHCNNIHCLAKAINQIAAALFTIHKGSIEDRLKEFLALASSSLLKIGQETDKTTTRNRESVYLLLDMIVQESPFLTMDLLESCFPYVLLRNAYHAVYKQSVTSSA
B3: Scamp5 (protein, UniProt Q9JKE3 1-235)
chain: MAEKVNNFPPLPKFIPLKPCFYQDFEADIPPQHLSLTKRLYYLWMLNSVTLAVNLVGCLAWLIGGGGATNFGLAFLWLILFTPCSYVCWFRPIYKAFKTDSSFSFMAFFFTFMAQLVISIIQAVGIPGWGVCGWIATISFFGTNIGSAVVMLIPTVMFTVVAVFSFIALSMVHKFYRGSGGSFSKAQEEWTTGAWKNPHVQQAAQNAAMGAAQGAMNQPQTQYSTTPNYTYSNEM

Biological target: T1, M6a-loops (rat)
Test: affinity purification with mass spectrometry; M6a-loops (10-25 ug, from concentrated supernatant) held by anti-SV5-mAb cross-linked to protein A magnetic beads (1 h, room temperature); incubated with clarified pooled rat hippocampi extract (P14, P21, P30; 1% Triton X-100 in PBS; 200-350 ug) overnight at 4 C; washed three times with PBS-T; eluted in SDS buffer with DTT; TMT/MS; mock: M6a-loops with protein A beads without anti-SV5; three co-IPs with two replicates each

binding	Binder
binds	B1
binds	B2
binds	B3
